Laboratory results taken from PMC5458078, “Global mapping of CARM1 substrates defines enzyme specificity and substrate recognition” (Nature Communications, 2017).
Results are given in words; binding and its absence hold for the method and conditions named. Binding seen in cells or lysates may run through a third protein. Some binding calls cover weakened binding; strength is not graded here. Sequences can lack the tags named with a protein.

Sequences of proteins named here, by UniProt entry; tags and fusion partners are left off.
UniProt Q92922: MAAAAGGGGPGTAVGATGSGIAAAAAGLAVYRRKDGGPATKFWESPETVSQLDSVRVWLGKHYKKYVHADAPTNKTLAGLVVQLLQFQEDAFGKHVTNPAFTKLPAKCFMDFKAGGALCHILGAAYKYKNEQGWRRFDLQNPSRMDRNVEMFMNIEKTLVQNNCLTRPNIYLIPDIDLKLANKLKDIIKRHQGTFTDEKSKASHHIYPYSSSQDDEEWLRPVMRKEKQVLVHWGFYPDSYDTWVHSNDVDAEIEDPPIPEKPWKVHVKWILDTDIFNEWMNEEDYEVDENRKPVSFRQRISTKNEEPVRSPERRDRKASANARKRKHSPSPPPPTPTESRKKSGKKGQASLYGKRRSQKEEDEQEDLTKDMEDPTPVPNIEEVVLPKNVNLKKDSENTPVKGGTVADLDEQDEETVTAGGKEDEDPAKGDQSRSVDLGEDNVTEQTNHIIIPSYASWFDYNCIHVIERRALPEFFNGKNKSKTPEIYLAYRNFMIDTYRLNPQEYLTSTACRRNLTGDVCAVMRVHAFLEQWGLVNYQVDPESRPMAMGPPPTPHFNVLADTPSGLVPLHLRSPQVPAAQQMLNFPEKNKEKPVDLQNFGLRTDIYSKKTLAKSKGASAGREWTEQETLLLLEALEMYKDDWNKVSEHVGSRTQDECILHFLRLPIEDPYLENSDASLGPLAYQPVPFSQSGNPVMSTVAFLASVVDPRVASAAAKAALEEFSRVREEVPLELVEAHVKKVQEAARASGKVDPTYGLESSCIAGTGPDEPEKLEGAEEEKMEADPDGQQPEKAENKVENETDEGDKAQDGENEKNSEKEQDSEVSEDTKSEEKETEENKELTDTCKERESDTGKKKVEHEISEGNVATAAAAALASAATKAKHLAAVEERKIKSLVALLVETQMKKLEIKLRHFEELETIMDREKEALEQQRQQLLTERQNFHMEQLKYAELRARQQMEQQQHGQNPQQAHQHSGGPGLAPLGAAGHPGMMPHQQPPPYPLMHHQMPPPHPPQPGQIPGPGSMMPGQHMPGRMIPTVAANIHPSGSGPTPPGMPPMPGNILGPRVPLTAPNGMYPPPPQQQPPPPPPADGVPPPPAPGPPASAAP
UniProt Q9Y6Q9: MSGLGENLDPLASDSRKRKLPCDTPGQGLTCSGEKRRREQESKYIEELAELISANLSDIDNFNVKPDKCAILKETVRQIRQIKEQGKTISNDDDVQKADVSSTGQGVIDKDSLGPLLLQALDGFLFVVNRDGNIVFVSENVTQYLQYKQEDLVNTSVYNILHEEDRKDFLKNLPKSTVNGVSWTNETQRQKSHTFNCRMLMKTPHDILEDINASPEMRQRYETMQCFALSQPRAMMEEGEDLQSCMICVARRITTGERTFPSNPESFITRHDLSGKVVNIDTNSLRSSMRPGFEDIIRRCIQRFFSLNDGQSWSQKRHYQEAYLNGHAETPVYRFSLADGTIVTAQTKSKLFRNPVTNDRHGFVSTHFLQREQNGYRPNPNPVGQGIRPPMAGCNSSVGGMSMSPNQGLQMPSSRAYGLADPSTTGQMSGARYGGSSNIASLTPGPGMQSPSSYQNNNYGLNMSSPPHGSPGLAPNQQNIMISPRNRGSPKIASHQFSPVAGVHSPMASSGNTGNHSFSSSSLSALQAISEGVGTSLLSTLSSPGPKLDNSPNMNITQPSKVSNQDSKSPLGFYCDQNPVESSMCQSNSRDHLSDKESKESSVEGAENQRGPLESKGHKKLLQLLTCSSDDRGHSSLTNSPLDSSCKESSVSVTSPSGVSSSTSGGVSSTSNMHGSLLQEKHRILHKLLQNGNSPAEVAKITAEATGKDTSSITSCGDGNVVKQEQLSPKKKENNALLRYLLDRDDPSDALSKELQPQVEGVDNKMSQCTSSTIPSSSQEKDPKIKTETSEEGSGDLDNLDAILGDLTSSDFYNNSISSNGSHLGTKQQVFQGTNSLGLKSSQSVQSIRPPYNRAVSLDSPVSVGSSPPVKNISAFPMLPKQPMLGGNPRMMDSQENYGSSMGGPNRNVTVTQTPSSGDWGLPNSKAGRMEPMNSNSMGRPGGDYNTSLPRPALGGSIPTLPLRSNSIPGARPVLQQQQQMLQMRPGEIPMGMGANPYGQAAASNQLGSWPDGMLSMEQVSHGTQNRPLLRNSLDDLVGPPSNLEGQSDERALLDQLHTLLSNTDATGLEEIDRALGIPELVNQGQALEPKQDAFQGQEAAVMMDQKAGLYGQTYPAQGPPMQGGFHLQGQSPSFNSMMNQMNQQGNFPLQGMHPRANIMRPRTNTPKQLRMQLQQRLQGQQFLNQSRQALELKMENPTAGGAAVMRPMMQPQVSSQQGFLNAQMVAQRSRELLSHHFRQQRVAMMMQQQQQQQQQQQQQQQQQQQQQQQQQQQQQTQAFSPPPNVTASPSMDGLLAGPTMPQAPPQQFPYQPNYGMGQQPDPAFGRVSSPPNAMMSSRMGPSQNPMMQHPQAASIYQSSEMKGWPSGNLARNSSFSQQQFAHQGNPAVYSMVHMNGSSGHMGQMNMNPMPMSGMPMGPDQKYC
UniProt P11940: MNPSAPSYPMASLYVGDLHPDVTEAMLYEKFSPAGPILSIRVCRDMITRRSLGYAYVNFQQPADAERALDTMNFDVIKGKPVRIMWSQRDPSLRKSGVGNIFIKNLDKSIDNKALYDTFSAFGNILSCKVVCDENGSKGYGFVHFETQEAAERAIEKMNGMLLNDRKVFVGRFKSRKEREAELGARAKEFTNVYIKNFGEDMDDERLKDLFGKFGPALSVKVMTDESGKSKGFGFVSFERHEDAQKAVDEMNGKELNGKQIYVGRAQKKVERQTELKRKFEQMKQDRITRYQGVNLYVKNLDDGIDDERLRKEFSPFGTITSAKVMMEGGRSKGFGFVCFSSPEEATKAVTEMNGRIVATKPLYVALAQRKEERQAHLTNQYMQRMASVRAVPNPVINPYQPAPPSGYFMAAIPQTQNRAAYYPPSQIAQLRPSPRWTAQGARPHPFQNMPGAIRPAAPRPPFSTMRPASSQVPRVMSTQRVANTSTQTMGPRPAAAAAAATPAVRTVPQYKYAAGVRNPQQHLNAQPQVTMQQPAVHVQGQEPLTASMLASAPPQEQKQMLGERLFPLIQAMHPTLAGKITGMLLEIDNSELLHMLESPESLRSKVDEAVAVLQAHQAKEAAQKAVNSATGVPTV

Assays:
[1] = target: T1, FLAG-tagged CARM1 28–608 (human) (UniProt Q86X55); assay: co-IP; FLAG-tagged CARM1 constructs transiently transfected into HEK293T CARM1 KO cells; CARM1 immunoprecipitated with anti-FLAG M2 resin; partners detected by western blot with the respective antibodies or ADMA antibodies
T1 sequence: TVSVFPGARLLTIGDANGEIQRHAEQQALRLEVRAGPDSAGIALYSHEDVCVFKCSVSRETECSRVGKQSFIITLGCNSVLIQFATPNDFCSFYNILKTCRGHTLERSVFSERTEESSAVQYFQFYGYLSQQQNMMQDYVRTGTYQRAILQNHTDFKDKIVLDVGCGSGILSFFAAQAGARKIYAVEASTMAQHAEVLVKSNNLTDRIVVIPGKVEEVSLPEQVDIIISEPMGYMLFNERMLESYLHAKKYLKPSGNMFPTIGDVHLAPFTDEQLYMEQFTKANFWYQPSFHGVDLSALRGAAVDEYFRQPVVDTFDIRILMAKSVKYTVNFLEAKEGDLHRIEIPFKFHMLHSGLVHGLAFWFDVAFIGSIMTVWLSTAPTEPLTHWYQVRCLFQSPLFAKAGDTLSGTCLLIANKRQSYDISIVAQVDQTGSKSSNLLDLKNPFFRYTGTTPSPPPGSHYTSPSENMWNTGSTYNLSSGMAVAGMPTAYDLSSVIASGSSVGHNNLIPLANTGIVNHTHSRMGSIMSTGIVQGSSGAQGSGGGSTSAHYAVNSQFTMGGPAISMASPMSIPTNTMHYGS

[2] = target: T2, FLAG-tagged CARM1 full-length (coactivator-associated arginine methyltransferase 1) (human) (UniProt Q86X55); assay: as above
T2 sequence: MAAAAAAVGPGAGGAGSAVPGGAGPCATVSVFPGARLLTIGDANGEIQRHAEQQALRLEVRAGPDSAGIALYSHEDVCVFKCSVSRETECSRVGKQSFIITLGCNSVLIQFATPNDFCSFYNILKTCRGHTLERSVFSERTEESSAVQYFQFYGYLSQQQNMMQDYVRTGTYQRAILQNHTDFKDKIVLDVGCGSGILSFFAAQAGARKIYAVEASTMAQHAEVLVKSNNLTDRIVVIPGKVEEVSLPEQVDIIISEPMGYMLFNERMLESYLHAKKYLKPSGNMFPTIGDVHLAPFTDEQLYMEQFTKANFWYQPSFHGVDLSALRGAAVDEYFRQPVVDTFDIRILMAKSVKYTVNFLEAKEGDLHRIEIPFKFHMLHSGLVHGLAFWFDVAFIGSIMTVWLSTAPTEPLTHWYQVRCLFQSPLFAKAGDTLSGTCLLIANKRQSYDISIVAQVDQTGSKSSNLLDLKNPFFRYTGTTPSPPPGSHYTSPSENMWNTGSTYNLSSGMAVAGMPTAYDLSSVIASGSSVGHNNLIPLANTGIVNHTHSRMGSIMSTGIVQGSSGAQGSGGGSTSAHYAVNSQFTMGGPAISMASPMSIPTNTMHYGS

binding [1] | binding [2] | Substance
binds | binds | BAF155 (from UniProt Q92922 1-1105)
binds | binds | NCOA3 (from UniProt Q9Y6Q9 1-1424)
binds | binds | PABP1 (from UniProt P11940 1-636)
